Measurements as given in patent publication US10946027B2, “Tianeptine oxalate salts and polymorphs” (Tonix Pharma Holdings Limited, priority 2016, dated 2021).
Values after ≈ are worked out from the molar mass of the structure shown. Read-outs that look alike come from different tables or passages of the source.

Columns and labels:
physchem = conditions: thermodynamic from solid
[1] = pH 4.5
[2] = not given; remark: listed apart in the source
[3] = pH 1.2, simulated gastric fluid
[4] = 25° C., 60% RH, 1 day, crimped glass vial
[5] = 25° C., 60% RH, 1 day, open air
[6] = 25° C., 60% RH, 3 days, crimped glass vial
[7] = 25° C., 60% RH, 7 days, crimped glass vial
[8] = 30° C., 65% RH, 1 day, crimped glass vial
[9] = 30° C., 65% RH, 1 day, open air
[10] = 30° C., 65% RH, 3 days, crimped glass vial
[11] = 30° C., 65% RH, 7 days, crimped glass vial
[12] = 40° C., 75% RH, 1 day, crimped glass vial
[13] = 40° C., 75% RH, 1 day, open air
[14] = 40° C., 75% RH, 3 days, crimped glass vial
[15] = 40° C., 75% RH, 7 days, crimped glass vial

Row | SMILES | solubility (physchem; [3]) [µg/mL] | solubility (physchem; pH 4.5, aqueous buffer) [µg/mL] | solubility (physchem; pH 6.8, aqueous buffer) [µg/mL] | water in the sample (KF) [4] [%] | water in the sample (KF) [5] [%] | water in the sample (KF) [6] [%] | water in the sample (KF) [7] [%] | water in the sample (KF) [8] [%] | water in the sample (KF) [9] [%] | water in the sample (KF) [10] [%] | water in the sample (KF) [11] [%] | water in the sample (KF) [12] [%] | water in the sample (KF) [13] [%] | water in the sample (KF) [14] [%] | water in the sample (KF) [15] [%] | water in the sample (KF) (Time 0) [%] | solubility [1] [µg/mL] | also measured
1 | CN1c2ccccc2C(NCCCCCCC(=O)O)c2ccc(Cl)cc2S1(=O)=O (racemic) [Tianeptine Hemi-Oxalate Form A] | 702 (≈ 1610 µM) | 317 (≈ 725 µM) | 585 (≈ 1340 µM) | 0.34 | 0.35 | 0.18 | 0.28 | 0.27 | 0.28 | 0.16 | 0.30 | 0.30 | 0.06 | 0.16 | 0.20 | 0.47 | 313 (≈ 716 µM) | water in the sample (KF) (25° C., 60% RH, 3 days, open air): 0.28%; water in the sample (KF) (25° C., 60% RH, 7 days, open air): 0.22%; water in the sample (KF) (30° C., 65% RH, 3 days, open air): 0.18%; water in the sample (KF) (30° C., 65% RH, 7 days, open air): 0.30%; water in the sample (KF) (40° C., 75% RH, 3 days, open air): 0.30%; water in the sample (KF) (40° C., 75% RH, 7 days, open air): 0.17%; change of water content (after 7 days, in open air or in a crimped glass vial): practically unchanged; XRPD pattern after slurry experiments ([2]; different solvents or solvent mixtures, different temperature conditions): No significant modifications in the XRPD pattern; thermodynamic stability of the form ([2]; from melting point, slurry experiments and stability tests): the most thermodynamically stable form; crystal form after stability tests ([2]; temperature 25-60° C., relative humidity 0-75%): the crystal form did not
2 | CN1c2ccccc2C(NCCCCCCC(=O)O)c2ccc(Cl)cc2S1(=O)=O (centres unmarked) [Tianeptine Sodium, tianeptine sodium, reference compound] | 4640 | 3680 | 1770 | 2.94 | 13.86 | 2.42 | 2.56 | 2.63 | 14.80 | 2.65 | 2.77 | 2.84 | 16.22 | 2.73 | 2.53 | 3.09 | 2101 | –
